Data taken from PMC2829074.
These are yes or no findings as the source states them, for the method shown. Some entries that bind do so weakly or less than the wild type.

Chains of the proteins cited; added tags and fusions are not shown. Lines headed by an entry give the natural chain unless they say otherwise; changes in a name come on top.
UniProt P02452: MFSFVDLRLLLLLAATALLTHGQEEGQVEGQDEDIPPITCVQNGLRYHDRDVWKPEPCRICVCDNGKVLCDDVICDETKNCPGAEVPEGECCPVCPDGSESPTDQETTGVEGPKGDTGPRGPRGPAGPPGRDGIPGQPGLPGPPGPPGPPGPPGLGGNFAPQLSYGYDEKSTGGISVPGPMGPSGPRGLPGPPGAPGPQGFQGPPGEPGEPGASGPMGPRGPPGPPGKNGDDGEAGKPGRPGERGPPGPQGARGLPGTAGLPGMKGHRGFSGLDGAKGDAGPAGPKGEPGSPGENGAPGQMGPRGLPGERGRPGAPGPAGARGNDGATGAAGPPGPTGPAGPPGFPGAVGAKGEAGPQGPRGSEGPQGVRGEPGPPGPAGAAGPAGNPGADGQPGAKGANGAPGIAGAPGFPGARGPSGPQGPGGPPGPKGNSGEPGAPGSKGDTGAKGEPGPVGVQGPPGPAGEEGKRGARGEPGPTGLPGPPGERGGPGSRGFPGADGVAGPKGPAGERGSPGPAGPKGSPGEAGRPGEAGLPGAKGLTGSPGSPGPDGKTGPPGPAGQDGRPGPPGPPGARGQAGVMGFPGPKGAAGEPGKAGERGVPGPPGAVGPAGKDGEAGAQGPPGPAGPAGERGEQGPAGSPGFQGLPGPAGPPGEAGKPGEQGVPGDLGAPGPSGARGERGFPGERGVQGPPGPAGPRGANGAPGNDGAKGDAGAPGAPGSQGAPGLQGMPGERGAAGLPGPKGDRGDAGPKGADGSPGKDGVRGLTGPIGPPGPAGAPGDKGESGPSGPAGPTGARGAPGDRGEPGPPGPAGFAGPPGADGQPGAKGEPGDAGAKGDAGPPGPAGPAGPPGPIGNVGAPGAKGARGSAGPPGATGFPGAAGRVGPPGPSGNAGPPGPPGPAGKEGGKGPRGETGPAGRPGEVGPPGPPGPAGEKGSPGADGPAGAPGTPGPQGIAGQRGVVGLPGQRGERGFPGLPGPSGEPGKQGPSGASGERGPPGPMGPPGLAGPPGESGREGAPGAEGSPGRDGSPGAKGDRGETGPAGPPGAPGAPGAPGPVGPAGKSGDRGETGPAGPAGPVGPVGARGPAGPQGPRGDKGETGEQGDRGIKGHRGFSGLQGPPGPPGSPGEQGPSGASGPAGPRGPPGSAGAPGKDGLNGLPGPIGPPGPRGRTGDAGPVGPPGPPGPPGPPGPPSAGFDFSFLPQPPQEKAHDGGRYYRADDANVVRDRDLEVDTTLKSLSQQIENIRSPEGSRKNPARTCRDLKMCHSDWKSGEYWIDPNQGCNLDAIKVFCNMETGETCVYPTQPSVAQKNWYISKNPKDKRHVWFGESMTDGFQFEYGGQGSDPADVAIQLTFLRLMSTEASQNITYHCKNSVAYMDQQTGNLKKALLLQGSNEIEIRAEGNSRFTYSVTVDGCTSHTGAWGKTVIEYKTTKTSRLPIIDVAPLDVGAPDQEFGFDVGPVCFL
UniProt P08123: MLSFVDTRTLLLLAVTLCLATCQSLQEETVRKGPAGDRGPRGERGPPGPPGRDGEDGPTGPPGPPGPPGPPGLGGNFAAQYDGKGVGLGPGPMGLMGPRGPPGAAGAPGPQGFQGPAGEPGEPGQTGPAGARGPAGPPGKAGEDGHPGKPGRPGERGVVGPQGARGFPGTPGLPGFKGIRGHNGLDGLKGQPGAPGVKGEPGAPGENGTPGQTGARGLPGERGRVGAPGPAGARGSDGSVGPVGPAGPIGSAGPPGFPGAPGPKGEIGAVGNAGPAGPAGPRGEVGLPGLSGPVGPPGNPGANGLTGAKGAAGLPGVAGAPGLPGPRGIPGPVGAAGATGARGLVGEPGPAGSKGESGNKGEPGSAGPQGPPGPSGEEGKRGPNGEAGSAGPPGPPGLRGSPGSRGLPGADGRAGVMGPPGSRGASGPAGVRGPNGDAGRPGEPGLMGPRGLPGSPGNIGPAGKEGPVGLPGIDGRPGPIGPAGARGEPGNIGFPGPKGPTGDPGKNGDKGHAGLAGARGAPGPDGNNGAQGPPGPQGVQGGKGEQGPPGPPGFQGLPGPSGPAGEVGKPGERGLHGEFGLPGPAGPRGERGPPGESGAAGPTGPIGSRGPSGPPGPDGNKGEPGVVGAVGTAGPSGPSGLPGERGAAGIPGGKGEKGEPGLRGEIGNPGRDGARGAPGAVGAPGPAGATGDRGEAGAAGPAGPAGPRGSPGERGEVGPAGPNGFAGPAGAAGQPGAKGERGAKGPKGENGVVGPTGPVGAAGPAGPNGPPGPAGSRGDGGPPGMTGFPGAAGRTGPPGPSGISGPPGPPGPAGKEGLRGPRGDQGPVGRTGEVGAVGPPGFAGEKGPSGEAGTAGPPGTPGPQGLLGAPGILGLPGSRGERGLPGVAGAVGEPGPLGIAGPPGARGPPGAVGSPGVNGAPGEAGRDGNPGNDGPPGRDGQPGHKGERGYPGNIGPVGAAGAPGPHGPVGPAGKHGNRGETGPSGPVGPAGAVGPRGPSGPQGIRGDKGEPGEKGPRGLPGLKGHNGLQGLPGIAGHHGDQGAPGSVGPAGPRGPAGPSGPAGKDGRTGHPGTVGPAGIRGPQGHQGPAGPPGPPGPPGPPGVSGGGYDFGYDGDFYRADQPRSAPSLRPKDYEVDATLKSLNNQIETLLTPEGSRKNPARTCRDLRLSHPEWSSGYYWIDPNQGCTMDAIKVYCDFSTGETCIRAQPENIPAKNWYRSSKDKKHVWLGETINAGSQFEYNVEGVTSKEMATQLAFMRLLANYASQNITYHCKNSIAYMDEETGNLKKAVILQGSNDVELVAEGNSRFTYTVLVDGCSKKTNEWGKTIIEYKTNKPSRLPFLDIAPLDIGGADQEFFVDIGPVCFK

Target: human placenta soluble collagen Type I (human) (UniProt P02452+P08123)
Assay: ELISA; specificity, solid-phase binding assay: VTNC (25 ng), fibrilar collagen (50 ng), ixolaris (75 ng), soluble collagen and laminin (100 ng) immobilized per well, Cyr61 30 nM in PBS-T for 90 minutes, detected with anti-Cyr61 monoclonal antibody; both purified

binding: binds
B1: Cyr61/CCN1 (protein, UniProt O00622 25-381)
chain: TCPAACHCPLEAPKCAPGVGLVRDGCGCCKVCAKQLNEDCSKTQPCDHTKGLECNFGASSTALKGICRAQSEGRPCEYNSRIYQNGESFQPNCKHQCTCIDGAVGCIPLCPQELSLPNLGCPNPRLVKVTGQCCEEWVCDEDSIKDPMEDQDGLLGKELGFDASEVELTRNNELIAVGKGSSLKRLPVFGMEPRILYNPLQGQKCIVQTTSWSQCSKTCGTGISTRVTNDNPECRLVKETRICEVRPCGQPVYSSLKKGKKCSKTKKSPEPVRFTYAGCLSVKKYRPKYCGSCVDGRCCTPQLTRTVKMRFRCEDGETFSKNVMMIQSCKCNYNCPHANEAAFPFYRLFNDIHKFRD
